This note sets out measurements from article PMC6614419.

Sequences of proteins named here, by UniProt entry; tags and fusion partners are left off.
UniProt Q9QZL0: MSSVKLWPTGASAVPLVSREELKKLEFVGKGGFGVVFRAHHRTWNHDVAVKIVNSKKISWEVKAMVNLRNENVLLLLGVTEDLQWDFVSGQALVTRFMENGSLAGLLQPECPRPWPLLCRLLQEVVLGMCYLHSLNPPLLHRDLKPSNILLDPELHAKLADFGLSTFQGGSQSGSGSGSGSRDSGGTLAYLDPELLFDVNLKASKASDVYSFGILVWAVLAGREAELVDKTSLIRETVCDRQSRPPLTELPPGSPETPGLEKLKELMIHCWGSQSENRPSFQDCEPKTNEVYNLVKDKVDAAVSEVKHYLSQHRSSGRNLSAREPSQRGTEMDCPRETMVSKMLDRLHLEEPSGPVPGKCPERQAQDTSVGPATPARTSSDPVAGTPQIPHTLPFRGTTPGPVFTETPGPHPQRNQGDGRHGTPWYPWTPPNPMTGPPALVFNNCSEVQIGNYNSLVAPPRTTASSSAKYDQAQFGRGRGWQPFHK
UniProt Q9Y572: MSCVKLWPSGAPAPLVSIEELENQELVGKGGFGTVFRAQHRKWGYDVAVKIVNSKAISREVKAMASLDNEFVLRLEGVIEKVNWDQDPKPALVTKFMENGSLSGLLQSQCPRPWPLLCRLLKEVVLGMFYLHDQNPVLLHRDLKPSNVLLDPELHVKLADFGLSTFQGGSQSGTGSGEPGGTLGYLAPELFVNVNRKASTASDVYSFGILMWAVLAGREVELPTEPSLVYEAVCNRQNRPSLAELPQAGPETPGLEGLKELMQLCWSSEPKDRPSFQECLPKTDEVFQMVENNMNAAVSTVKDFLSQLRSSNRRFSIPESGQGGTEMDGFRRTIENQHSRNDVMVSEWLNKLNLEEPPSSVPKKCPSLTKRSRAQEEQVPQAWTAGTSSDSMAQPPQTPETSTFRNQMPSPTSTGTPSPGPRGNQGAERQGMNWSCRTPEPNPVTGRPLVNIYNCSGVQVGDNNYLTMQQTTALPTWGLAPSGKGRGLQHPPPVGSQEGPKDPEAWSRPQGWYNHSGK
UniProt Q8K1M6: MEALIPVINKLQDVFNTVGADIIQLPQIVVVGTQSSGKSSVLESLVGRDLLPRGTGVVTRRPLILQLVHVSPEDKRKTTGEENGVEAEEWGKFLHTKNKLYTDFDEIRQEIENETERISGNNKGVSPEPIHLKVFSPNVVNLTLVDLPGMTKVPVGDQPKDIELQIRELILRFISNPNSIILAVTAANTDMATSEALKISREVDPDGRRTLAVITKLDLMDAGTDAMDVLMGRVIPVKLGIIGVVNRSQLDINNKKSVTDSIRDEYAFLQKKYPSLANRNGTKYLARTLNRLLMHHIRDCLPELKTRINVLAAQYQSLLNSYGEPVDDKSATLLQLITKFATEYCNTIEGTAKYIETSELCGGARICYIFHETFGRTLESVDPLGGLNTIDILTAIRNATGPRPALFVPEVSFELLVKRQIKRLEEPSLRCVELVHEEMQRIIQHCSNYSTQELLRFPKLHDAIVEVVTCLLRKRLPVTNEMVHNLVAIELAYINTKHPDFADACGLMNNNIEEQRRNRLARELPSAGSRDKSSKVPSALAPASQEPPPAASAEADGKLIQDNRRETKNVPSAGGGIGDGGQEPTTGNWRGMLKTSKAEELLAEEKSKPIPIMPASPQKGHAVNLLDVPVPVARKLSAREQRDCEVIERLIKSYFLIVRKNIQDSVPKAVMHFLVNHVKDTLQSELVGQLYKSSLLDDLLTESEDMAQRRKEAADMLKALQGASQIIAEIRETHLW
UniProt O00429: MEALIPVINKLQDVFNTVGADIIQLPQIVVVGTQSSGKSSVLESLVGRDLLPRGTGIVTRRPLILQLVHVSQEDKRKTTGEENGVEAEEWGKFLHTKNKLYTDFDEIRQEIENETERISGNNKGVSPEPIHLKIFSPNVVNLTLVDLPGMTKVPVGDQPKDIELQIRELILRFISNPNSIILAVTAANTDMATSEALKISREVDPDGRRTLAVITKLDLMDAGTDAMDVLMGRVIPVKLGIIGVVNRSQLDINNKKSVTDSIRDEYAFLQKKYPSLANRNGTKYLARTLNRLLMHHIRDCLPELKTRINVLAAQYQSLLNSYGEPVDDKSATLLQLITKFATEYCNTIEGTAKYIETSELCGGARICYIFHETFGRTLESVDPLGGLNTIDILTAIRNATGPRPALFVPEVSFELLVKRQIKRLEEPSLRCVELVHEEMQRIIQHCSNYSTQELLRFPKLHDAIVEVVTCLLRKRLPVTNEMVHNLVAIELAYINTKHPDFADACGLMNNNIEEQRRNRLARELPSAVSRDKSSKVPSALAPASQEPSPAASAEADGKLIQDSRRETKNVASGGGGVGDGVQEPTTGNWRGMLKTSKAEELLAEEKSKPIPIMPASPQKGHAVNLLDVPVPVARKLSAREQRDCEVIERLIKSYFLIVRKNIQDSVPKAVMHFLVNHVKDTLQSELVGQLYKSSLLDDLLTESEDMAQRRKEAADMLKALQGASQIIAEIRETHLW

In assay [1] the target is receptor interaction protein kinase 3 (RIPK3), mouse liver (mouse (endogenous in ICR mouse liver)) (UniProt Q9QZL0). Nature of the assay: co-IP; mitochondrial fraction of liver of ICR mice (saline or CdCl2 1 mg/kg, 7 days) immunoprecipitated with anti-RIPK3 antibody on SureBeads, room temperature 1 h, washed in PBST; Western blot. (In western blotting, separated proteins are transferred to a membrane and probed.)

Assay [2] addresses T1, Retinoblastoma (RB) protein (human (endogenous in L02)) (UniProt P06400).
T1 sequence: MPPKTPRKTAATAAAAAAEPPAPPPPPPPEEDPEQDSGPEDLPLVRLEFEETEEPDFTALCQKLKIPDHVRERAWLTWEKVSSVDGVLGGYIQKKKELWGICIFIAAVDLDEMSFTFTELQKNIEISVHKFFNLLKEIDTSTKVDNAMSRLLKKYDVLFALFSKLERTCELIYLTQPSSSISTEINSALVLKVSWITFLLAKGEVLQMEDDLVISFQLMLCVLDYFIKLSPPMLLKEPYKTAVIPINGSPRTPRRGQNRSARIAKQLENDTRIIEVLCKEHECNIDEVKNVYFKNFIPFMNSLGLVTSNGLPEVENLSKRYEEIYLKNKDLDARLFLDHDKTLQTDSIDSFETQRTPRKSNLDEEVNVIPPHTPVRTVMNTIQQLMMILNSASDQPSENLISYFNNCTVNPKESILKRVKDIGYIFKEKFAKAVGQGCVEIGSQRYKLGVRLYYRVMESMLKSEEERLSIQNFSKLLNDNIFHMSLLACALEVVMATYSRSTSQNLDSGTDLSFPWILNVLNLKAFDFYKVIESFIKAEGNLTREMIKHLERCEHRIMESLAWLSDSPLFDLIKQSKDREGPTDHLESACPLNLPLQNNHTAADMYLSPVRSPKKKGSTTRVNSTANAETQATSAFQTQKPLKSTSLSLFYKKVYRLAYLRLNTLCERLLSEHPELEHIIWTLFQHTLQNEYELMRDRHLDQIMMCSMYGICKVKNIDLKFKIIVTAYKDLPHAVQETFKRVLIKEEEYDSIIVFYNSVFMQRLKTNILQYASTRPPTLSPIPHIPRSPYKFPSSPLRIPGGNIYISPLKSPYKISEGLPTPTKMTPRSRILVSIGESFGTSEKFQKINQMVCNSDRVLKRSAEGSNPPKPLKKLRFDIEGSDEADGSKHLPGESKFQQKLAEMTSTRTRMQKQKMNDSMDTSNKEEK
Description: co-IP; whole cell lysates (Nonidet P-40 lysis buffer) of L02 cells, control or CdCl2 20 uM 6 h, immunoprecipitated with anti-RB antibody on SureBeads, room temperature 1 h, washed in PBST; Western blot.

Assay [3] concerns the target T2, mixed lineage kinase domain like (MLKL) protein (human (endogenous in L02)) (UniProt Q8NB16).
T2 sequence: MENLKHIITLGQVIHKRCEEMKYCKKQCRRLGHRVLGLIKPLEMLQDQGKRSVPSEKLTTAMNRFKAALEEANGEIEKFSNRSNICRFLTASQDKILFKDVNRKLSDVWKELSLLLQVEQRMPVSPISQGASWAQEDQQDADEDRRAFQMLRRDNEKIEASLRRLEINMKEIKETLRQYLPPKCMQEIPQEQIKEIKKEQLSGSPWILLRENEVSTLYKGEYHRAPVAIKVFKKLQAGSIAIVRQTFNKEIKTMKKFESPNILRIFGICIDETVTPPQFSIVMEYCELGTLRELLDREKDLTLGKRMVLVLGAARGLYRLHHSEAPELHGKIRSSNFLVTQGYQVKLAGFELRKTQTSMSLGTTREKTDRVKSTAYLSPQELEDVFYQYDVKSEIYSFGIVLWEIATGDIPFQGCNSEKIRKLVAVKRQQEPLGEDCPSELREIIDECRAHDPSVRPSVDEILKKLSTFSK
Description: proximity ligation; Duolink PLA on fixed, permeabilized L02 cells, control or treated with CdCl2; foci per cell counted.

Assay [4] deals with receptor interaction protein kinase 3 (RIPK3) (human (endogenous in L02)) (UniProt Q9Y572). Description: co-IP; whole cell lysates (Nonidet P-40 lysis buffer) of L02 cells, control or CdCl2 20 uM 6 h, immunoprecipitated with anti-RIPK3 antibody on SureBeads, room temperature 1 h, washed in PBST; Western blot.
Assay [5] concerns the target receptor interaction protein kinase 3 (RIPK3), mouse liver (mouse (endogenous in ICR mouse liver)) (UniProt Q9QZL0). Nature of the assay: co-IP; mitochondrial fraction of liver of ICR mice (saline or CdCl2 1 mg/kg, 7 days) immunoprecipitated with anti-RIPK3 antibody on SureBeads, room temperature 1 h, washed in PBST; Western blot. The source holds these as a separate data set.

Where two headings read alike, the source gives them in different places. These are yes or no findings as the source states them, for the method shown. Binding seen in cells or lysates may run through a third protein. Some results given as binding are weak or reduced against the parent protein; the word gives no strength.

For the molecule “Dynamin-related protein 1 (Drp1), mouse liver (from UniProt Q8K1M6 1-736)”, the binding result in assay [1] was “binds”.
In the case of “receptor interaction protein kinase 3 (RIPK3) (from UniProt Q9Y572 1-518)”, the binding entry in assay [2] is listed as “binds”.
Same read-out and setting: as for “Dynamin-related protein 1 (Drp1) (from UniProt O00429 1-736)”, the entry is “binds”.

B1: Retinoblastoma (RB) protein (protein, UniProt P06400 1-928)
chain: T1 sequence
For B1, the binding result in assay [3] and in assay [4] was “binds” each time.

B2: mixed lineage kinase domain like (MLKL) protein, mouse liver (protein, UniProt Q9D2Y4 1-472)
chain: MDKLGQIIKLGQLIYEQCEKMKYCRKQCQRLGNRVHGLLQPLQRLQAQGKKNLPDDITAALGRFDEVLKEANQQIEKFSKKSHIWKFVSVGNDKILFHEVNEKLRDVWEELLLLLQVYHWNTVSDVSQPASWQQEDRQDAEEDGNENMKVILMQLQISVEEINKTLKQCSLKPTQEIPQDLQIKEIPKEHLGPPWTKLKTSKMSTIYRGEYHRSPVTIKVFNNPQAESVGIVRFTFNDEIKTMKKFDSPNILRIFGICIDQTVKPPEFSIVMEYCELGTLRELLDREKDLTMSVRSLLVLRAARGLYRLHHSETLHRNISSSSFLVAGGYQVKLAGFELSKTQNSISRTAKSTKAERSSSTIYVSPERLKNPFCLYDIKAEIYSFGIVLWEIATGKIPFEGCDSKKIRELVAEDKKQEPVGQDCPELLREIINECRAHEPSQRPSVDGRSLSGRERILERLSAVEESTDKKV
With B2, in assay [5], the binding entry is listed as “binds”.

B3: Retinoblastoma (RB) protein, mouse liver (protein, UniProt P13405 1-921)
chain: MPPKAPRRAAAAEPPPPPPPPPREDDPAQDSGPEELPLARLEFEEIEEPEFIALCQKLKVPDHVRERAWLTWEKVSSVDGILEGYIQKKKELWGICIFIAAVDLDEMPFTFTELQKSIETSVYKFFDLLKEIDTSTKVDNAMSRLLKKYNVLCALYSKLERTCELIYLTQPSSALSTEINSMLVLKISWITFLLAKGEVLQMEDDLVISFQLMLCVVDYFIKFSPPALLREPYKTAAIPINGSPRTPRRGQNRSARIAKQLENDTRIIEVLCKEHECNIDEVKNVYFKNFIPFINSLGIVSSNGLPEVESLSKRYEEVYLKNKDLDARLFLDHDKTLQTDPIDSFETERTPRKNNPDEEANVVTPHTPVRTVMNTIQQLMVILNSASDQPSENLISYFNNCTVNPKENILKRVKDVGHIFKEKFANAVGQGCVDIGVQRYKLGVRLYYRVMESMLKSEEERLSIQNFSKLLNDNIFHMSLLACALEVVMATYSRSTLQHLDSGTDLSFPWILNVLNLKAFDFYKVIESFIKVEANLTREMIKHLERCEHRIMESLAWLSDSPLFDLIKQSKDGEGPDNLEPACPLSLPLQGNHTAADMYLSPLRSPKKRTSTTRVNSAANTETQAASAFHTQKPLKSTSLALFYKKVYRLAYLRLNTLCARLLSDHPELEHIIWTLFQHTLQNEYELMRDRHLDQIMMCSMYGICKVKNIDLKFKIIVTAYKDLPHAAQETFKRVLIREEEFDSIIVFYNSVFMQRLKTNILQYASTRPPTLSPIPHIPRSPYKFSSSPLRIPGGNIYISPLKSPYKISEGLPTPTKMTPRSRILVSIGESFGTSEKFQKINQMVCNSDRVLKRSAEGGNPPKPLKKLRFDIEGADEADGSKHLPAESKFQQKLAEMTSTRTRMQKQRMNESKDVSNKEEK
Consider B3, for which, in assay [5], the binding result is “binds”.
